Laboratory results reported in paper PMC7318359, “Stapled Peptides as HIF‐1α/p300 Inhibitors: Helicity Enhancement in the Bound State Increases Inhibitory Potency” (Chemistry (Weinheim an Der Bergstrasse, Germany), 2020).
Bridge positions count the residues as written; N and C are the ends. Peptide text beside a SMILES is read from it.

Test: Circular dichroism of isolated peptides
Type: physicochemical
Details: unbound peptide, 250 μM, 20 mM sodium phosphate, pH 7.55, 20 °C; for [θ]MRE‐222: CD

Compound | [θ]MRE‐222 [deg cm^2 dmol^−1] | % helicity (CD) [%]
CC(=O)N[C@@H](CC(C)C)C(=O)N[C@@H](CCC(N)=O)C(=O)NCC(=O)N[C@H]1CSSC[C@@H](C(=O)N[C@@H](C)C(=O)N[C@@H](CC(C)C)C(=O)N[C@@H](CC(=O)O)C(=O)N[C@@H](CCC(N)=O)C(=O)N[C@H](C(=O)N[C@@H](CC(N)=O)C(N)=O)C(C)C)NC(=O)[C@H](CC(C)C)NC(=O)[C@H](CC(C)C)NC(=O)[C@H](CCC(=O)O)NC1=O [HIF‐1α812–826 oxE816C‐R820C] (Ac-LQGCELLCALDQVN-NH2; disulfide 4-8) | −3766 | 11
Ac-LQGEELLRALDQVN-NH2 [wt‐HIF‐1α812–826, wild‐type HIF‐1α helix 3 peptide, N‐acetyl, C‐terminal amide] | −3954 | 12
CC(=O)N[C@@H](CC(C)C)C(=O)N[C@@H](CCC(N)=O)C(=O)NCC(=O)N[C@@H](CS)C(=O)N[C@@H](CCC(=O)O)C(=O)N[C@@H](CC(C)C)C(=O)N[C@@H](CC(C)C)C(=O)N[C@@H](CS)C(=O)N[C@@H](C)C(=O)N[C@@H](CC(C)C)C(=O)N[C@@H](CC(=O)O)C(=O)N[C@@H](CCC(N)=O)C(=O)N[C@H](C(=O)N[C@@H](CC(N)=O)C(N)=O)C(C)C [HIF‐1α812–826 redE816C‐R820C] (Ac-LQGCELLCALDQVN-NH2) | −3375 | 10
